In paper PMC7732854:
No constants are given. Whether binding was seen depends on the method and setting. Binding seen in cells or lysates may run through a third protein. Some entries that bind do so weakly or less than the wild type.

Molecular target: T1, microtubule-associated tumor-suppressor 1 (MTUS1) (human (endogenous in Caki-1)) (UniProt Q9ULD2)
T1 sequence: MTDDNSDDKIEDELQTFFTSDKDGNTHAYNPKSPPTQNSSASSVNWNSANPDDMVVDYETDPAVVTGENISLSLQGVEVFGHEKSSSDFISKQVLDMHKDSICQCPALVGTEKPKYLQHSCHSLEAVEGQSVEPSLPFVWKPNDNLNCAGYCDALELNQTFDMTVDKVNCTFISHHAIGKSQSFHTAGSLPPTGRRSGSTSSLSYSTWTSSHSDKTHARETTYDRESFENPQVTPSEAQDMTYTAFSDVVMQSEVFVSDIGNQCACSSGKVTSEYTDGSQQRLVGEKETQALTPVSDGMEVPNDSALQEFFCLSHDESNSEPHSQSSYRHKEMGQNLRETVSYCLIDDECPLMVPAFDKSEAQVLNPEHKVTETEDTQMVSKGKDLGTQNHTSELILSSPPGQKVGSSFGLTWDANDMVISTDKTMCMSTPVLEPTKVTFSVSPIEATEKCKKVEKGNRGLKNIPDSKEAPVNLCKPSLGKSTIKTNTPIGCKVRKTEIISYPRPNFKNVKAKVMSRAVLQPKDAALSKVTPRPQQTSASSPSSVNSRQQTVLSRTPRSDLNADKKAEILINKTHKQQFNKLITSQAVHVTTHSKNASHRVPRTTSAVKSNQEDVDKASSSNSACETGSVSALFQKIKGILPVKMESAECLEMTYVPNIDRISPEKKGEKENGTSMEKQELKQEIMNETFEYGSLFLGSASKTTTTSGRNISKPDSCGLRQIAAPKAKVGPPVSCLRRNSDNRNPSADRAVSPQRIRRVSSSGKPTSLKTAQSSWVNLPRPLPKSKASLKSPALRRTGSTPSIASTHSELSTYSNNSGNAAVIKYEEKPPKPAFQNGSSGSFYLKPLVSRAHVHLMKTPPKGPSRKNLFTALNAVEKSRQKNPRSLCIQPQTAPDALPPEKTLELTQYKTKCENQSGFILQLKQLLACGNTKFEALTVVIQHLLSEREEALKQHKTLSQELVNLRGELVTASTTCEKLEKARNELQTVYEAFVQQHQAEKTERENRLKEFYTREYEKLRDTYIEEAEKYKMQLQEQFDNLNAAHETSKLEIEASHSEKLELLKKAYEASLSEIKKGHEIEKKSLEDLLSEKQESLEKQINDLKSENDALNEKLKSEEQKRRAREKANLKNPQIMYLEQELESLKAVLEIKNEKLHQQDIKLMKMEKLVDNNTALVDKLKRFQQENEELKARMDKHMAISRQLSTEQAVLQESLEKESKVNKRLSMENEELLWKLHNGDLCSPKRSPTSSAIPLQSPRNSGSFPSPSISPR
Assay: co-IP; Caki-1 cell lysate precipitated with MTUS1 antibody (ab198176) at 4 °C for 2 h, protein A Sepharose CL-4B beads at 4 °C overnight, washed thrice with RIPA buffer, western blot

- binding: binds
B1: KIF2C (Kinesin family member 2C) (protein, UniProt Q99661 1-725)
chain: MAMDSSLQARLFPGLAIKIQRSNGLIHSANVRTVNLEKSCVSVEWAEGGATKGKEIDFDDVAAINPELLQLLPLHPKDNLPLQENVTIQKQKRRSVNSKIPAPKESLRSRSTRMSTVSELRITAQENDMEVELPAAANSRKQFSVPPAPTRPSCPAVAEIPLRMVSEEMEEQVHSIRGSSSANPVNSVRRKSCLVKEVEKMKNKREEKKAQNSEMRMKRAQEYDSSFPNWEFARMIKEFRATLECHPLTMTDPIEEHRICVCVRKRPLNKQELAKKEIDVISIPSKCLLLVHEPKLKVDLTKYLENQAFCFDFAFDETASNEVVYRFTARPLVQTIFEGGKATCFAYGQTGSGKTHTMGGDLSGKAQNASKGIYAMASRDVFLLKNQPCYRKLGLEVYVTFFEIYNGKLFDLLNKKAKLRVLEDGKQQVQVVGLQEHLVNSADDVIKMIDMGSACRTSGQTFANSNSSRSHACFQIILRAKGRMHGKFSLVDLAGNERGADTSSADRQTRMEGAEINKSLLALKECIRALGQNKAHTPFRESKLTQVLRDSFIGENSRTCMIATISPGISSCEYTLNTLRYADRVKELSPHSGPSGEQLIQMETEEMEACSNGALIPGNLSKEEEELSSQMSSFNEAMTQIRELEEKAMEELKEIIQQGPDWLELSEMTEQPDYDLETFVNKAESALAQQAKHFSALRDVIKALRLAMQLEEQASRQISSKKRPQ
